Assay results: patent publication EP4574844A1
Where a chain is given by its changes, count along the chain named. These are yes or no findings as the source states them, for the method shown. Some results given as binding are weak or reduced against the parent protein; the word gives no strength.

Amino acid sequences for entries named in this document (tags omitted). A change or cut given only in a name is not applied to a line headed by its entry. Chains listed by the source or under a name are the forms on record and can include a tag or linker.
recombinant cynomolgus PDL1 (G7PSE7, form named): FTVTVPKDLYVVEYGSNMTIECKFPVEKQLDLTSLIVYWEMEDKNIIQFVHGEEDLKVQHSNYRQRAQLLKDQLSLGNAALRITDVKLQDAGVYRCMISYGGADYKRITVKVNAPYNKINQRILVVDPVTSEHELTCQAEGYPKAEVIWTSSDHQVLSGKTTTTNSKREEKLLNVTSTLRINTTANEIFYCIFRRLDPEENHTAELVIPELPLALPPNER

B1: PRO1392 (scFv)
scFv: DIQMTQSPSSLSASVGDRVTITCQASQSINDYLAWYQQKPGKAPKLLIYKASTLASGVPSRFSGSGSGTDFTLTISSLQPEDFATYYCQQGYIITDIDNVFGTGTKVTVLGGGGGSGGGGSGGGGSGGGGSQVQLQESGPGLVKPSETLSLTCKASGFSFSSGYDMCWVRQPPGKGLEWIACVVAGSVDITYYASWAKGRVTISKDSSKNQVSLKLSSVTAADTAVYYCARKDAYSDAFNLWGQGTLVTVSS
B2: PRO3891 (scFv)
scFv: B1 scFv with A51G, S52G, T224S, T249K
B3: PRO1347 (scFv)
scFv: DIQMTQSPASLSASVGDRVTITCQASQSIGTYLAWYQQKPGKPPKLLIYRAFILASGVPSRFSGSGSGTDFTLTISSLQPEDFATYYCQSNFYSDSTTIGPNAFGTGTKVTVLGGGGGSGGGGSGGGGSGGGGSEVQLVESGGGLVQPGGSLRLSCAASGFSFNSDYWIYWVRQAPGKGLEWIACIYGGSSGNTQYASWAQGRFTISRDNSKNTVYLQMNSLRAEDTAVYFCARGYVDYGGATDLWGQGTLVTVSS
B4: PRO2230 (scFv)
scFv: B3 scFv with C185S
B5: PRO4245 (scFv)
scFv: DIQMTQSPSSLSASVGDRVTITCQASQSIGTYLAWYQQKPGKPPKLLIYRGGILASGVPSRFSGSGSGTDFTLTISSLQPEDFATYYCQSNFYSDSTTIGPNAFGTGTKVTVLGGGGGSGGGGSGGGGSGGGGSQQLVESGGGLVQPGGSLRLSCAASGFSFNSDYWIYWVRQAPGKGLEWIASIYGGSSGNTQYASWAQGRFTISKDNSKNTVYLQMNSLRAEDSAVYFCARGYVDYGGATDLWGQGTLVKVSS

These binders were tested against recombinant cynomolgus PDL1 (cynomolgus monkey) (UniProt G7PSE7) (assay: SPR).

binding, binds:
B1, B2, B3, B4, B5
